Values quoted from earlier work in patent publication US11661409B1, “Acid addition salts, compositions, and methods of treating” (Pioneura Corporation, priority 2022, dated 2023).
At least one structure is not confirmed: it was looked up by name or label, or the drawing left a doubt.

Tests used:
human monocytes = settings: cited from earlier work
[1] = models of HAND, AD, PD, MS, PND, DSD, SARS-CoV-2 spike proteins, BBB; cited from earlier work
HIV-1 Tat exposure = settings: 10 mg/kg i.p., murine model; cited from earlier work

SMILES: CN1CCN(Cc2ccc(-c3cnc4[nH]cc(-c5ccc6[nH]ccc6c5)c4c3)cc2)CC1 [Compound 1, 3-(1H-indol-5-yl)-5-[4-[(4-methyl-1-piperazinyl)methyl]phenyl]-1H-pyrrolo[2,3-b]pyridine]
- HIV-1 Tat-induced release of cytokines (human monocytes): inhibits
- neuroprotective properties in disease models [1]: neuroprotective properties
- effect in HIV-1 associated neurocognitive disorder model (HIV-1 Tat exposure): reduced inflammatory cytokine production, protected neuronal architecture, and altered microglia's morphologic and ultrastructural response to HIV-1 Tat exposure
